Key:
[1] = Friction coefficient of sample tape coated with the lubricant, after 1000 runs; settings: 1 mg/m^2 on carbon film layer
[2] = Corrosion resistance: magnetic deterioration rate after storage in high-temperature, high-humidity environment; settings: one week at 60° C. and 80% RH
[3] = Shuttle durability of sample tape: playback output change after 100 runs on AIT2 deck; settings: difference between initial output and playback output after 100 runs; for Shuttle durability (dB) (−5° C.): 20% RH
[4] = Corrosion resistance: magnetic deterioration rate after storage in corrosive gas environment; settings: 5 hours, 35° C., 70% RH, 2 ppm H2S and 1 ppm HCl

| Structure (SMILES) | Friction coefficient (40° C., 80% RH) [1] | High-temperature, high-humidity environment (magnetic deterioration rate) ([2]; Tables 8 and 9) | Shuttle durability (dB) (40° C., 20% RH) [3] | Shuttle durability (dB) (−5° C.) [3] | Corrosive gas environment (magnetic deterioration rate) ([4]; Tables 8 and 9) | High-temperature, high-humidity environment (magnetic deterioration rate) ([2]; Tables 17 and 18) | Corrosive gas environment (magnetic deterioration rate) ([4]; Tables 17 and 18) |
| --- | --- | --- | --- | --- | --- | --- | --- |
| CCCCCCCCCCCCCCCCCCOC(=O)CC(CC(=O)O)C(=O)O (stereo not drawn) [Example 11, C18H37OCOCH2CH(COOH)CH2COOH] | 0.26 | ◯ (magnetic deterioration rate is 3% or less) | −1.9 | −1.5 | ⊙ (magnetic deterioration rate is 1% or less) |  |  |
| O=C(O)CC(OC(=O)CCCCC(F)(F)C(F)(F)C(F)(F)C(F)(F)C(F)(F)C(F)(F)C(F)(F)C(F)(F)F)C(=O)O (stereo not drawn) [Example 12, CF3(CF2)7(CH2)4COOCH(COOH)CH2COOH] | 0.26 | ⊙ (magnetic deterioration rate is 1% or less) | −1.0 | −1.0 | ⊙ (magnetic deterioration rate is 1% or less) |  |  |
| O=C(O)CC(OC(=O)CCCCC(F)(F)C(F)(F)C(F)(F)C(F)(F)F)C(=O)O (stereo not drawn) [Example 13, CF3(CF2)3(CH2)4COOCH(COOH)CH2COOH] | 0.27 | ◯ (magnetic deterioration rate is 3% or less) | −1.3 | −1.0 | ◯ (magnetic deterioration rate is 3% or less) |  |  |
| O=C(O)CC(OC(=O)CCCCCCCC(F)(F)C(F)(F)C(F)(F)C(F)(F)F)C(=O)O (stereo not drawn) [Example 14, CF3(CF2)3(CH2)7COOCH(COOH)CH2COOH] | 0.24 | ⊙ (magnetic deterioration rate is 1% or less) | −1.0 | −1.2 | ◯ (magnetic deterioration rate is 3% or less) |  |  |
| O=C(O)CC(OC(=O)CCCCCCCCCCC(F)(F)C(F)(F)C(F)(F)C(F)(F)C(F)(F)C(F)(F)C(F)(F)C(F)(F)C(F)(F)C(F)(F)F)C(=O)O (stereo not drawn) [Example 15, CF3(CF2)9(CH2)10COOCH(COOH)CH2COOH] | 0.20 | ⊙ (magnetic deterioration rate is 1% or less) | −1.0 | −0.5 | ⊙ (magnetic deterioration rate is 1% or less) |  |  |
| O=C(O)CC(OC(=O)CCCCCCCCCCCCC(F)(F)C(F)(F)C(F)(F)C(F)(F)C(F)(F)C(F)(F)C(F)(F)C(F)(F)F)C(=O)O (stereo not drawn) [Example 16, CF3(CF2)7(CH2)12COOCH(COOH)CH2COOH] | 0.23 | ⊙ (magnetic deterioration rate is 1% or less) | −1.0 | −1.0 | ⊙ (magnetic deterioration rate is 1% or less) |  |  |
| O=C(O)CC(OC(=O)CCCCCCCCCCC(F)(F)C(F)(F)C(F)(F)C(F)(F)C(F)(F)C(F)(F)F)C(=O)O (stereo not drawn) [Example 17, CF3(CF2)5(CH2)10COOCH(COOH)CH2COOH] | 0.23 | ⊙ (magnetic deterioration rate is 1% or less) | −1.0 | −0.8 | ◯ (magnetic deterioration rate is 3% or less) |  |  |
| CCCCCCCCCC(CC=CCCCCCCCC(=O)OC(CC(=O)O)C(=O)O)C(F)(F)C(F)(F)C(F)(F)C(F)(F)C(F)(F)C(F)(F)C(F)(F)C(F)(F)F (stereo not drawn) [Example 18, CF3(CF2)7CH(C9H19)CH2CH═CH(CH2)7COOCH(COOH)CH2COOH] | 0.20 | ⊙ (magnetic deterioration rate is 1% or less) | −1.5 | −0.5 | ⊙ (magnetic deterioration rate is 1% or less) |  |  |
| CCCCCCC(CCCCCCCC(=O)OC(CC(=O)O)C(=O)O)C(F)(F)C(F)(F)C(F)(F)C(F)(F)C(F)(F)C(F)(F)C(F)(F)C(F)(F)F (stereo not drawn) [Example 19, CF3(CF2)7CH(C6H13)(CH2)7COOCH(COOH)CH2COOH] | 0.24 | ◯ (magnetic deterioration rate is 3% or less) | −1.5 | −1.0 | ⊙ (magnetic deterioration rate is 1% or less) |  |  |
| CCCCCCCC(CCC(CCCCCCCC(=O)OC(CC(=O)O)C(=O)O)CCC(F)(F)C(F)(F)C(F)(F)C(F)(F)C(F)(F)C(F)(F)C(F)(F)C(F)(F)C(F)(F)C(F)(F)F)CCC(F)(F)C(F)(F)C(F)(F)C(F)(F)C(F)(F)C(F)(F)C(F)(F)C(F)(F)C(F)(F)C(F)(F)F (stereo not drawn) [Example 20, CH3(CH2)3(CH2CH2CH(CH2CH2(CF2)9CF3))2(CH2)7COOCH(COOH)CH2COOH] | 0.20 | ◯ (magnetic deterioration rate is 3% or less) | −1.0 | −0.5 | ⊙ (magnetic deterioration rate is 1% or less) |  |  |
| O=C(O)CC(CC(=O)OCCC(F)(F)C(F)(F)C(F)(F)C(F)(F)F)C(=O)O (stereo not drawn) [Example 21, CF3(CF2)3(CH2)2OCOCH2CH(COOH)CH2COOH] | 0.28 |  | −2.0 | −1.5 |  | ◯ (magnetic deterioration rate is 3% or less) | ◯ (magnetic deterioration rate is 3% or less) |
| O=C(O)CC(CC(=O)OCCCCCCCCCCCC(F)(F)C(F)(F)C(F)(F)C(F)(F)C(F)(F)C(F)(F)C(F)(F)C(F)(F)C(F)(F)C(F)(F)F)C(=O)O (stereo not drawn) [Example 22, CF3(CF2)9(CH2)11OCOCH2CH(COOH)CH2COOH] | 0.20 |  | −1.0 | −0.5 |  | ⊙ (magnetic deterioration rate is 1% or less) | ⊙ (magnetic deterioration rate is 1% or less) |
| O=C(O)CC(CC(=O)OCCCCCCCCCCCC(F)(F)C(F)(F)C(F)(F)C(F)(F)F)C(=O)O (stereo not drawn) [Example 23, CF3(CF2)3(CH2)11OCOCH2CH(COOH)CH2COOH] | 0.20 |  | −1.5 | −1.0 |  | ⊙ (magnetic deterioration rate is 1% or less) | ◯ (magnetic deterioration rate is 3% or less) |
| O=C(O)CC(CC(=O)OCCCCCCCCCCCCCC(F)(F)C(F)(F)C(F)(F)C(F)(F)C(F)(F)C(F)(F)C(F)(F)C(F)(F)F)C(=O)O (stereo not drawn) [Example 24, CF3(CF2)7(CH2)13OCOCH2CH(COOH)CH2COOH] | 0.20 |  | −0.8 | −0.5 |  | ⊙ (magnetic deterioration rate is 1% or less) | ⊙ (magnetic deterioration rate is 1% or less) |
| CCCCCCCCCC(CCCCCCCCOC(=O)CC(CC(=O)O)C(=O)O)C(F)(F)C(F)(F)C(F)(F)C(F)(F)C(F)(F)C(F)(F)C(F)(F)C(F)(F)F (stereo not drawn) [Example 25, CF3(CF2)7CH(C9H19)(CH2)8OCOCH2CH(COOH)CH2COOH] | 0.20 |  | −1.0 | −0.5 |  | ⊙ (magnetic deterioration rate is 1% or less) | ⊙ (magnetic deterioration rate is 1% or less) |
| CCCCCCC(CC=CCCCCCCCCOC(=O)CC(CC(=O)O)C(=O)O)C(F)(F)C(F)(F)C(F)(F)C(F)(F)C(F)(F)C(F)(F)C(F)(F)C(F)(F)F (stereo not drawn) [Example 26, CF3(CF2)7CH(C6H13)CH2CH═CH(CH2)8OCOCH2CH(COOH)CH2COOH] | 0.25 |  | −1.0 | −1.0 |  | ◯ (magnetic deterioration rate is 3% or less) | ⊙ (magnetic deterioration rate is 1% or less) |
| CCCCCCC(CCC(CCCCCCCCOC(=O)CC(CC(=O)O)C(=O)O)CCC(F)(F)C(F)(F)C(F)(F)C(F)(F)C(F)(F)C(F)(F)C(F)(F)C(F)(F)C(F)(F)C(F)(F)F)CCC(F)(F)C(F)(F)C(F)(F)C(F)(F)C(F)(F)C(F)(F)C(F)(F)C(F)(F)C(F)(F)C(F)(F)F (stereo not drawn) [Example 27, CH3(CH2)3(CH2CH2CH(CH2CH2(CF2)9CF3))2(CH2)8OCOCH2CH(COOH)CH2COOH] | 0.23 |  | −1.0 | −0.5 |  | ◯ (magnetic deterioration rate is 3% or less) | ⊙ (magnetic deterioration rate is 1% or less) |
| CCCCCCCCCCCCCCCCCCC(CC(=O)OC(CC(=O)O)C(=O)O)C(=O)OCCC(F)(F)C(F)(F)C(F)(F)C(F)(F)C(F)(F)C(F)(F)C(F)(F)C(F)(F)F (stereo not drawn) [Example 28, CF3(CF2)7(CH2)2OCOCH(C18H37)CH2COOCH(COOH)CH2COOH] | 0.23 |  | −0.8 | −0.5 |  | ⊙ (magnetic deterioration rate is 1% or less) | ⊙ (magnetic deterioration rate is 1% or less) |

— patent US7323260B2, “Lubricant, recording medium and carboxylic acid compound” (Sony Corporation, priority 2003, dated 2008)
